Source: patent US20180320217A1, “METHODS FOR SAMPLING AND MEASURING ORAL LAVAGE PROTEINS” (The Procter & Gamble Company, priority 2017, published 2018)

B1: Pleiotrophin (protein, UniProt P21246 33-168, looked up)
Pleiotrophin: GKKEKPEKKVKKSDCGEWQWSVCVPTSGDCGLGTREGTRTGAECKQTMKTQRCKIPCNWKKQFGAECKYQFQAWGECDLNTALKTRTGSLKRALHNAECQKTVTISKPCGKLTKPKPQAESKKKKKEGKKQEKMLD
B2: Osteomodulin (protein, UniProt Q99983 21-421, looked up)
Osteomodulin: QYETYQWDEDYDQEPDDDYQTGFPFRQNVDYGVPFHQYTLGCVSECFCPTNFPSSMYCDNRKLKTIPNIPMHIQQLYLQFNEIEAVTANSFINATHLKEINLSHNKIKSQKIDYGVFAKLPNLLQLHLEHNNLEEFPFPLPKSLERLLLGYNEISKLQTNAMDGLVNLTMLDLCYNYLHDSLLKDKIFAKMEKLMQLNLCSNRLESMPPGLPSSLMYLSLENNSISSIPEKYFDKLPKLHTLRMSHNKLQDIPYNIFNLPNIVELSVGHNKLKQAFYIPRNLEHLYLQNNEIEKMNLTVMCPSIDPLHYHHLTYIRVDQNKLKEPISSYIFFCFPHIHTIYYGEQRSTNGQTIQLKTQVFRRFPDDDDESEDHDDPDNAHESPEQEGAEGHFDLHYYENQE
B3: Phosphoglycerate mutase 1 (protein, UniProt P18669 2-254, looked up)
Phosphoglycerate mutase 1: AAYKLVLIRHGESAWNLENRFSGWYDADLSPAGHEEAKRGGQALRDAGYEFDICFTSVQKRAIRTLWTVLDAIDQMWLPVVRTWRLNERHYGGLTGLNKAETAAKHGEAQVKIWRRSYDVPPPPMEPDHPFYSNISKDRRYADLTEDQLPSCESLKDTIARALPFWNEEIVPQIKEGKRVLIAAHGNSLRGIVKHLEGLSEEAIMELNLPTGIPIVYELDKNLKPIKPMQFLGDEETVRKAMEAVAAQGKAKK
B4: Nucleoside diphosphate kinase B (protein, UniProt P22392 1-152, looked up)
Nucleoside diphosphate kinase …: MANLERTFIAIKPDGVQRGLVGEIIKRFEQKGFRLVAMKFLRASEEHLKQHYIDLKDRPFFPGLVKYMNSGPVVAMVWEGLNVVKTGRVMLGETNPADSKPGTIRGDFCIQVGRNIIHGSDSVKSAEKEISLWFKPEELVDYKSCAHDWVYE
B5: NSFL1 cofactor p47 (protein, UniProt Q9UNZ2 1-370, looked up)
NSFL1 cofactor p47: MAAERQEALREFVAVTGAEEDRARFFLESAGWDLQIALASFYEDGGDEDIVTISQATPSSVSRGTAPSDNRVTSFRDLIHDQDEDEEEEEGQRFYAGGSERSGQQIVGPPRKKSPNELVDDLFKGAKEHGAVAVERVTKSPGETSKPRPFAGGGYRLGAAPEEESAYVAGEKRQHSSQDVHVVLKLWKSGFSLDNGELRSYQDPSNAQFLESIRRGEVPAELRRLAHGGQVNLDMEDHRDEDFVKPKGAFKAFTGEGQKLGSTAPQVLSTSSPAQQAENEAKASSSILIDESEPTTNIQIRLADGGRLVQKFNHSHRISDIRLFIVDARPAMAATSFILMTTFPNKELADESQTLKEANLLNAVIVQRLT
B6: Peroxiredoxin-6 (protein, UniProt P30041 2-224, looked up)
Peroxiredoxin-6: PGGLLLGDVAPNFEANTTVGRIRFHDFLGDSWGILFSHPRDFTPVCTTELGRAAKLAPEFAKRNVKLIALSIDSVEDHLAWSKDINAYNCEEPTEKLPFPIIDDRNRELAILLGMLDPAEKDEKGMPVTARVVFVFGPDKKLKLSILYPATTGRNFDEILRVVISLQLTAEKRVATPVDWKDGDSVMVLPTIPEEEAKKLFPKGVFTKELPSGKKYLRYTPQP
B7: Peroxiredoxin-1 (protein, UniProt Q06830 2-199, looked up)
Peroxiredoxin-1: SSGNAKIGHPAPNFKATAVMPDGQFKDISLSDYKGKYVVFFFYPLDFTFVCPTEIIAFSDRAEEFKKLNCQVIGASVDSHFCHLAWVNTPKKQGGLGPMNIPLVSDPKRTIAQDYGVLKADEGISFRGLFIIDDKGILRQITVNDLPVGRSVDETLRLVQAFQFTDKHGEVCPAGWKPGSDTIKPDVQKSKEYFSKQK
B8: Platelet-activating factor acetylhydrolase IB subunit beta (protein, UniProt P68402 2-229, looked up)
Platelet-activating factor …: SQGDSNPAAIPHAAEDIQGDDRWMSQHNRFVLDCKDKEPDVLFVGDSMVQLMQQYEIWRELFSPLHALNFGIGGDTTRHVLWRLKNGELENIKPKVIVVWVGTNNHENTAEEVAGGIEAIVQLINTRQPQAKIIVLGLLPRGEKPNPLRQKNAKVNQLLKVSLPKLANVQLLDTDGGFVHSDGAISCHDMFDFLHLTGGGYAKICKPLHELIMQLLEETPEEKQTTIA
B9: Alpha-2-HS-glycoprotein (protein, UniProt P02765 19-300; P02765 341-367, looked up)
Alpha-2-HS-glycoprotein chain … 1: APHGPGLIYRQPNCDDPETEEAALVAIDYINQNLPWGYKHTLNQIDEVKVWPQQPSGELFEIEIDTLETTCHVLDPTPVARCSVRQLKEHAVEGDCDFQLLKLDGKFSVVYAKCDSSPDSAEDVRKVCQDCPLLAPLNDTRVVHAAKAALAAFNAQNNGSNFQLEEISRAQLVPLPPSTYVEFTVSGTDCVAKEATEAAKCNLLAEKQYGFCKATLSEKLGGAEVAVTCMVFQTQPVSSQPQPEGANEAVPTPVVDPDAPPSPPLGAPGLPPAGSPPDSHVL
Alpha-2-HS-glycoprotein chain … 2: TVVQPSVGAAAGPVVPPCPGRIRHFKV

Test system: proteins in oral lavage
Assay: Abundance of proteins in human oral lavage (SomaLogic), TABLE 1
Assay type: in vivo
Settings: for Means (Original Scale) High bleeder BL: high bleeders (gingivitis); for Means (Original Scale) High bleeder BL / Means (Original Scale) Low bleeder BL: baseline; for Means (Original Scale) Low bleeder BL: low bleeders (healthy); for Fold Change High bleeder W4 vs High bleeder BL / Fold Change High bleeder BL vs Low bleeder BL: oral lavage
[1] = abundance in oral lavage, high bleeders, week 4 of investigative products
[2] = high bleeders, week 4 of treatment vs baseline
[3] = high vs low bleeders at baseline
[4] = high bleeders vs low bleeders at baseline
[5] = week 4 of investigative products vs baseline, high bleeders

Molecule	Means (Original Scale) High bleeder BL (abundance in oral lavage)	Means (Original Scale) High bleeder W4 [1]	Means (Original Scale) Low bleeder BL (abundance in oral lavage)	Fold Change High bleeder W4 vs High bleeder BL [2]	Fold Change High bleeder BL vs Low bleeder BL [3]	Fold Change High bleeder BL vs Low bleeder BL [4]	Fold Change High bleeder W4 vs High bleeder BL [5]	Means (Original Scale) High bleeder W4 (in vivo, po)
B1	20915	10949	9417	0.58	2.15			
B2	2109	736	301			4.01	0.51	
B3	52081	19944	7725	0.17	25.56			
B4	1205	913	342			6.98	0.76	
B5	1799	924	570			3.16	0.57	
B6	22914	15898	9404	0.64	2.62			
B7	62705	33782	30663	0.53	2.55			
B8	6029		1218	0.55	4.50			3019
B9	23244	12828	3367			6.01	0.66	
